This note sets out measurements from patent publication US11021457B2, “Class of isoindolone-imide ring-1,3-dione-2-ene compounds, composition and use thereof” (WIGEN BIOMEDICINE TECHNOLOGY (SHANGHAI) CO., LTD., priority 2017, dated 2021).

The IC50 is the concentration that inhibits the measured activity by half. High values mean weaker potency, low ones greater potency.

One test deals with LC3B (Homo sapiens (Human), UniProt Q9GZQ8). In words: Fluorescence polarization experiment targeting LC3B (GST-LC3B with FITC-labeled peptide). As to conditions: GST-LC3B 180 nM, FITC-labeled peptide 18 nM, 25° C. (In fluorescence polarisation assays a small probe gives low polarisation when free and higher when bound to something large.)
Another test deals with BxPC-3. In words: Inhibition of tumor cell proliferation, CellTiter-Glo, BxPC-3. The format is cell-based. As to conditions: compound concentration 50 μM, 72 hours. For orientation: ATP-based viability assays read luminescence as a measure of living cells.
The subject of the next test is A549. In words: Inhibition of tumor cell proliferation, CellTiter-Glo, A549. The format is cell-based. The settings on record: compound concentration 50 μM, 72 hours.
For another test, the system named is MDA-MB-453. In words: Inhibition of tumor cell proliferation, CellTiter-Glo, MDA-MB-453. The format is cell-based. As to conditions: compound concentration 50 μM, 72 hours.
The next test concerns K562. As to the kind of experiment: Inhibition of tumor cell proliferation, CellTiter-Glo, K562. Type of test: cell-based. As to conditions: compound concentration 50 μM, 72 hours.
The test system of another test is RPMI-8226. As to the kind of experiment: Inhibition of tumor cell proliferation, CellTiter-Glo, RPMI-8226. Type of test: cell-based. The settings on record: compound concentration 50 μM, 72 hours.
For the next test, the system named is SU-DHL6. In words: Inhibition of tumor cell proliferation, CellTiter-Glo, SU-DHL6. The format is cell-based. As to conditions: compound concentration 50 μM, 72 hours.

Structures are written as SMILES. Structures were worked out from names or drawings and are uncertain.

For the molecule `O=C1CCC(N2C(=O)c3cccc(NC(=O)COC=C4C(=O)CC(c5ccccc5)CC4=O)c3C2=O)C(=O)N1` (centres unmarked), the IC50 against LC3B fell in the range of 100 to 1000 µM. Moreover, the “Inhibitory activity against proliferation (cell survival rate) BxPC-3” value in the test with BxPC-3 is “+ (60≤survival rate (%)<90)”. In addition, the “Inhibitory activity against proliferation (cell survival rate) A549” value in the test on A549 is given as “+ (60≤survival rate (%)<90)”. Further, the “Inhibitory activity against proliferation (cell survival rate) MDA-MB-453” value in the test on MDA-MB-453 is “+++ (survival rate (%)≤30)”. Further, the “Inhibitory activity against proliferation (cell survival rate) K562” value in the test on K562 is “+ (60≤survival rate (%)<90)”. In addition, the “Inhibitory activity against proliferation (cell survival rate) RPMI-8226” value in the test with RPMI-8226 is reported as “+ (60≤survival rate (%)<90)”. Further, the “Inhibitory activity against proliferation (cell survival rate) SU-DHL6” value with SU-DHL6 is given as “+++ (survival rate (%)≤30)”.

On LC3B, `O=C1CCC(N2C(=O)c3cccc(NC(=O)CSC=C4C(=O)CC(c5ccccc5)CC4=O)c3C2=O)C(=O)N1` (centres unmarked) yielded an IC50 of 100 to 1000 µM. In addition, in the test with BxPC-3, the “Inhibitory activity against proliferation (cell survival rate) BxPC-3” value is recorded as “+ (60≤survival rate (%)<90)”. Besides, the “Inhibitory activity against proliferation (cell survival rate) A549” value in the test on A549 is given as “+++ (survival rate (%)≤30)”. The “Inhibitory activity against proliferation (cell survival rate) MDA-MB-453” value in the test with MDA-MB-453 is on record as “+++ (survival rate (%)≤30)”. In addition, in the test on K562, the “Inhibitory activity against proliferation (cell survival rate) K562” value is listed as “+++ (survival rate (%)≤30)”. For the same molecule, the “Inhibitory activity against proliferation (cell survival rate) RPMI-8226” value in the test with RPMI-8226 is listed as “+++ (survival rate (%)≤30)”. In addition, in the test with SU-DHL6, the “Inhibitory activity against proliferation (cell survival rate) SU-DHL6” value is “+++ (survival rate (%)≤30)”.
